Experimental data reported in PubChem BioAssay AID1347076 (National Center for Advancing Translational Sciences (NCATS), 2019).
Hit rate of the full screen: of about 400,000 compounds, about 13,000 (3.2%) were called active. Inconclusive means that the source gave no clear call. Such entries were picked first, then a sample of the others. Calls come from the whole dose curve; as a rule, active = well fitted cell-killing curve with a large enough effect; inconclusive = small, poorly fitted or top-dose-only effect, or effect the other way; inactive = flat fitted curve, though single readings scatter. Potencies beside an inconclusive call are fits to weak or partial responses and may not hold up.

experiment: qHTS assay for MDR1-selective chemotherapeutics: Primary screen using the drug-selected MDR subline cells KB-V1; details: KB-V1 MDR cells viability, CellTiter-Glo, 72 h; series mostly up to 46.1 µM; note: nearly all actives have a fitted effect of over 60% in size
Outline: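 Compound-treated KB-V1 multidrug-resistant cells, 72 h, 37 degrees C; viability by CellTiter-Glo. Fitted qHTS curves give the values.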
Potency is the fitted concentration of half-maximal effect.

| SMILES | Potency |
| --- | --- |
| CCCCC(=O)Nc1ccc(C(=O)NNC(=O)c2ccc(C)c(Br)c2)cc1 | inconclusive: 16.4 µM [rising, single point] |
| O=C(Nc1sc2c(c1C(=O)c1ccccc1)CCCC2)c1cccnc1 | inactive |
| Cc1ccc([N+](=O)[O-])c(NC(=O)COC(=O)C2CC3CCCC(C2)C3=O)c1C (stereo not drawn) | inconclusive: 29.1 µM [rising, single point] |
| COc1ccccc1N1CCN(C(=O)COc2cc(C)ccc2C)CC1 | inactive |
| COC(=O)CNC(c1ccccc1)c1cc(C)ccc1NC(=O)CNC(=O)OCc1ccccc1 (stereo not drawn) | inconclusive: 0.326 µM [cytotoxic, full curve, poor fit] |
| Cc1cc(C)c(CN2CCN(C(=O)Cn3cnc(C(=O)Nc4ccc(C)c(C)c4)n3)CC2)c(C)c1 | inactive |
| O=C(NC1CCCC1)c1ccc(COCC(F)(F)C(F)F)o1 | inconclusive: 18.4 µM [cytotoxic, partial curve, poor fit] |
| COc1cc(CN(CCN(C)C)Cc2ccccc2)ccc1OCc1ccccc1 | inconclusive: 3.66 µM [cytotoxic, partial curve] |
| COC(=O)c1ccc2c(=O)n(-c3ccc(OC)cc3)c(=S)[nH]c2c1 | inconclusive: 20.6 µM [cytotoxic, partial curve, poor fit] |
| COc1cc(Cl)cc(/C=C/c2ccc3cccc(O)c3n2)c1OC | inconclusive: 5.8 µM [cytotoxic, partial curve, poor fit] |
| COc1ccccc1NS(=O)(=O)c1cccc(NC(=O)c2ccc3ccccc3n2)c1 | active: 2.59 µM |
| O=C(Nc1cccnc1)C1Cc2c(-c3ccc4c(c3)OCO4)ccnc2O1 (stereo not drawn) | inconclusive: 20.6 µM [cytotoxic, single point] |
| CCOC(=O)N1CCN(c2nnc(-c3ccccc3)c3ccccc23)CC1 | inactive |
| CCC1(CC)C(=O)NC(=O)NC1=S | inconclusive: 11.6 µM [rising, partial curve] |
| CC1CN(CCCSc2ccc(Cl)cc2)CC(C)O1 (stereo not drawn) | inconclusive: 29.1 µM [cytotoxic, single point] |
| Cc1ccc(CN2CC34C=CC(O3)C(C(=O)NCc3ccco3)C4C2=O)cc1 (stereo not drawn) | active: 18.4 µM |
| CCC1CCCCN1S(=O)(=O)c1ccc(NC(=O)C2CCN(C(=O)c3ccco3)CC2)cc1 (stereo not drawn) | inconclusive: 16.4 µM [cytotoxic, partial curve] |
| CCOc1ccc(C(=O)NN2C(=S)NC(C)(C)C=C2C)cc1 | inactive |
| C=CCn1c(SCc2ccc(F)cc2)nnc1-c1sc2nc(C)cc(C)c2c1N | inactive |
| CC(=NNC(=S)N1CCCC1)c1ccccn1 | inconclusive: 0.0052 µM [cytotoxic, full curve, poor fit] |
| CC1c2ccsc2CCN1C(=O)NC(=O)c1ccc(Cl)cc1 (stereo not drawn) | inconclusive: 20.6 µM [cytotoxic, single point] |
| C#CCN(C[C@@H](CC(C)C)NC(=O)OC(C)(C)C)S(=O)(=O)c1ccc(Br)cc1F | inconclusive: 20.6 µM [cytotoxic, partial curve, poor fit] |
| COc1ccc(CCNC(=O)C(=O)NCC2OCCN2S(=O)(=O)c2ccccc2)cc1 (stereo not drawn) | inconclusive: 29.1 µM [rising, single point] |

| SMILES | Potency |
| --- | --- |
| Clc1ccc(C2=NNC(=NCC3CCCO3)SC2)cc1 (stereo not drawn) | inconclusive: 3.66 µM [cytotoxic, partial curve, poor fit] |
| COc1nc(N)nc2c1ncn2C1OC(CO)CC1O (stereo not drawn) | inconclusive: 29.1 µM [rising, single point] |
| CC(=O)Nc1cccc(-c2ccnc3c2CC(C(=O)Nc2cccc(Oc4ccccc4)c2)O3)c1 (stereo not drawn) | inconclusive: 18.4 µM [cytotoxic, single point] |
| CCOC(=O)c1c(C)nn(-c2ccc(NC(=O)c3cccs3)cc2)c1C | inconclusive: 20.6 µM [cytotoxic, single point] |
| Cc1cc(C)c2c(=O)[nH]c(=O)n(Cc3ccccc3)c2n1 | active: 13 µM |
| CCc1nc(C)cn1S(=O)(=O)c1cc(Br)ccc1OC | active: 16.4 µM |
| COc1ccccc1NC(=O)CSc1ncc2c(n1)-c1cc(Cl)ccc1N(C)S2(=O)=O | inconclusive: 18.4 µM [cytotoxic, single point] |
| Cc1ccc(C(=O)CCC(=O)N2CCN(C(=O)c3ccco3)CC2)cc1 | inconclusive: 23.1 µM [cytotoxic, single point] |
| CC(C)(C)C(=O)N1CCN(c2ccc(NC(=O)c3ccc4c(c3)OCCO4)cc2)CC1 | inconclusive: 16.4 µM [cytotoxic, single point] |
| CCN(CC)S(=O)(=O)c1ccc(OC)c(NC(=O)CCS(=O)(=O)Cc2ccccc2)c1 | inconclusive: 18.4 µM [cytotoxic, partial curve, poor fit] |
| CCc1cc(C(=O)Cc2cnn(-c3ccccc3)c2)c(O)cc1O | active: 23.1 µM |
| CC(C)N(C(=S)NCc1ccccc1)c1ccccc1 | inconclusive: 18.4 µM [cytotoxic, partial curve, poor fit] |
| Cc1cccc(NC(=O)C2CCN(c3nccc(C)n3)CC2)c1 | active: 14.6 µM |
| O=C(CCCc1nc(-c2ccccc2Cl)no1)NC1CCCCC1 | inconclusive: 14.6 µM [cytotoxic, partial curve] |
| O=C(c1ccc(Cl)cc1)N1CCN(c2ccc(F)cc2)CC1 | active: 16.4 µM |
| CCN(CC)CCNC(=O)c1cc(Br)c(N)cc1OC | inactive |
| COc1cc2[nH]c(=S)nc(NCc3ccc(Cl)cc3)c2cc1OC | inactive |
| CCc1nc(N2CCOCC2)c(C#N)c2c1COC(C)(C)C2 | inactive |
| COc1cccc(CNC(=O)C(=O)NCC(c2ccco2)N2CCOCC2)c1 (stereo not drawn) | inconclusive: 29.1 µM [cytotoxic, partial curve, poor fit] |
| CCOC(=O)c1c(NC(=O)c2ccco2)sc(C(=O)N2CCCC2)c1C | active: 2.31 µM |
| COc1cc(-c2cc3nc(NCc4cccs4)ccn3n2)cc(OC)c1OC | inconclusive: 25.9 µM [cytotoxic, single point] |
| Cc1ccc(S(=O)(=O)c2nnn3c2nc(Nc2ccc(C(C)C)cc2)c2sccc23)cc1C | inactive |
| COc1cc(OC)cc(C(=O)Nc2nc(CC(=O)NCCc3ccccc3)cs2)c1 | inconclusive: 23.1 µM [cytotoxic, partial curve, poor fit] |

| SMILES | Potency |
| --- | --- |
| O=C(Nc1nnc(COc2ccc(Cl)cc2)s1)c1ccco1 | inactive |
| COC(=O)NC(=S)Nc1ccc(Oc2ccc(Cl)cc2Cl)c(Cl)c1 | inconclusive: 14.6 µM [cytotoxic, partial curve, poor fit] |
| CN(c1ccccc1)S(=O)(=O)c1cccc(NC(=O)CC(C)(C)C)c1 | active: 2.59 µM |
| CCn1cc(CN2CCCC(CO)(Cc3ccc(F)cc3)C2)c2ccccc21 (stereo not drawn) | inactive |
| O=C1C[C@H]2C=CCc3cccc(c32)CN1Cc1ccc(Br)cc1 | inconclusive: 20.6 µM [cytotoxic, single point] |
| COc1ccccc1C(=O)Nc1nc2ccccc2s1 | inconclusive: 13 µM [cytotoxic, partial curve, poor fit] |
| COc1ccccc1OCCn1c(=O)oc2ccc(C)cc21 | inconclusive: 18.4 µM [cytotoxic, partial curve] |
| CCOc1ccc(CCNC(=O)c2cc3c(-c4cccc(OC)c4)nn(C)c3s2)cc1OCC | active: 23.1 µM |
| CCOc1ccc(N(CC(=O)Nc2cccc(F)c2)S(=O)(=O)c2c(C)noc2C)cc1 | inconclusive: 8.2 µM [cytotoxic, partial curve, poor fit] |
| Cc1ccc(-c2nn(-c3ccccc3)cc2C(=O)NCCCN2CCOCC2)cc1 | inconclusive: 2.59 µM [cytotoxic, full curve] |
| O=C(Nc1cccc(Cl)c1)Nc1ccc2c(c1)C(=O)OC2 | inconclusive: 10.3 µM [rising, partial curve, poor fit] |
| COC(=O)[C@]12CCCCC=C1N(Cc1ccc3c(c1)OCO3)C(=O)[C@H](CC(=O)NCC13CC4CC(CC(C4)C1)C3)C2 | inconclusive: 20.6 µM [cytotoxic, partial curve] |
| Cc1cc(NC(=O)CN(C)S(=O)(=O)c2ccc3c(c2)CCC(=O)N3)ccc1Br | inconclusive: 20.6 µM [cytotoxic, single point] |
| Cn1nc(C(F)(F)F)c2cc(C(=O)Nc3ccc(Cl)cc3)sc21 | inconclusive: 29.1 µM [cytotoxic, single point] |
| Cc1cc(C)n2c(SCC(=O)NC3CCCCC3C)nnc2n1 (stereo not drawn) | inconclusive: 16.4 µM [cytotoxic, partial curve] |
| COc1cccc2c(Nc3ccccc3C)cc(C)nc12 | inconclusive: 18.4 µM [cytotoxic, partial curve] |
| CN(c1ccc(Cl)cc1)c1cc(=O)n(C)c2ccccc12 | inconclusive: 35.5 µM [cytotoxic, single point] |
| COc1ccc(Br)cc1CN(C)CC(=O)Nc1cccc(S(=O)(=O)N2CCCC2)c1 | inconclusive: 29.1 µM [cytotoxic, single point] |
| Cc1ccc2occ(/C=N/NC(=O)c3ccccc3C)c(=O)c2c1 | inconclusive: 29.1 µM [cytotoxic, single point] |
| CC1=C(C(=O)N2CCOCC2)CC(CC(=O)NCCCN(C)C)C(=O)N1Cc1ccc(C(C)(C)C)cc1 (stereo not drawn) | inactive |
| CCN1CCN(C(=S)NC(=O)c2cc(OC)c(OC)c(OC)c2)CC1 | inactive |
| CC1(C(=O)Nc2ccc3c(c2)OCCO3)CCN1Cc1ccccc1OC(F)F (stereo not drawn) | inconclusive: 2.59 µM [cytotoxic, partial curve, poor fit] |

No new results follow: an excerpt of the list.

| SMILES | Potency |
| --- | --- |
| O=C(Nc1cccc(Cl)c1)Nc1ccc2c(c1)C(=O)OC2 | inconclusive: 10.3 µM [rising, partial curve, poor fit] |
| COC(=O)[C@]12CCCCC=C1N(Cc1ccc3c(c1)OCO3)C(=O)[C@H](CC(=O)NCC13CC4CC(CC(C4)C1)C3)C2 | inconclusive: 20.6 µM [cytotoxic, partial curve] |
| Cc1cc(NC(=O)CN(C)S(=O)(=O)c2ccc3c(c2)CCC(=O)N3)ccc1Br | inconclusive: 20.6 µM [cytotoxic, single point] |
